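The test systems are human melanoma cell lines, treated with a pair of drugs for 72 h and then stained and imaged. Values are the share of nuclei positive for cleaved PARP as a percentage of the same share in the DMSO control: 100 is the control level, higher means more apoptosis. Concentrations were fixed for each drug; these are the higher of two levels. The file gives one value for each pair and line, without errors, so small differences may be noise. Basal and induced levels differ widely between cell lines.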
An unselected part of the screen is shown.
An entry leaves out what has no value listed here.
A dash means that no value is listed here.

First drug in all entries: JZL184, 5000 nM, O=C(Oc1ccc([N+](=O)[O-])cc1)N1CCC(C(O)(c2ccc3c(c2)OCO3)c2ccc3c(c2)OCO3)CC1

- NC(=O)Nc1cc(-c2cccc(F)c2)sc1C(=O)N[C@H]1CCCNC1 at 100 nM | LOX IMVI: 81.2; IPC-298: 87.5; UACC-257: 80.8; G-361: 93.7; MZ2-MEL: 140; WM1745: 122
- CCCCCCCCc1ccc(CCC(N)(CO)CO)cc1 at 10000 nM | LOX IMVI: 137; IPC-298: 56.3; UACC-257: 48.0; G-361: 9720; MZ2-MEL: 133
- Nc1cccc2c1CN(C1CCC(=O)NC1=O)C2=O (stereo not given) at 5000 nM | LOX IMVI: 53.8; IPC-298: 165; UACC-257: 42.3; G-361: 63.2; MZ2-MEL: 58.3; WM1745: 114
- N#Cc1c(O)c2c(-c3ccc(-c4ccccc4O)cc3)csc2[nH]c1=O at 10000 nM | LOX IMVI: 108; IPC-298: 25.7; UACC-257: 38.2; G-361: 21.5; MZ2-MEL: 57.4; WM1745: 88.9
- CO[C@@H]1[C@H](N(C)C(=O)c2ccccc2)C[C@H]2O[C@]1(C)n1c3ccccc3c3c4c(c5c6ccccc6n2c5c31)C(=O)NC4 at 400 nM | LOX IMVI: 119; IPC-298: 76.4; UACC-257: 77.6; G-361: 245; MZ2-MEL: 507; WM1745: 374
- C[C@@H]1CCN(C(=O)CC#N)C[C@@H]1N(C)c1ncnc2[nH]ccc12 at 5000 nM | LOX IMVI: 49.4; IPC-298: 18.4; UACC-257: 20.1; G-361: 39.2; WM1745: 110
- O=c1[nH]nc(Sc2ncc([N+](=O)[O-])s2)n1-c1ccc2c(c1)OCCO2 at 1000 nM | LOX IMVI: 121; IPC-298: 177; UACC-257: 64.6; G-361: 112; MZ2-MEL: 120
- CCN(CC)CCCCNc1ncc2cc(-c3cc(OC)cc(OC)c3)c(NC(=O)NC(C)(C)C)nc2n1 at 500 nM | LOX IMVI: 84.9; IPC-298: 35.3; UACC-257: 12.9; G-361: 57.0; MZ2-MEL: 60.6; WM1745: 121
- CCCCCCCCCCCCCCCCCCOP(=O)([O-])OC1CC[N+](C)(C)CC1 at 2000 nM | LOX IMVI: 70.4; IPC-298: 100; UACC-257: 70.3; G-361: 87.9; MZ2-MEL: 44.0
- Cn1nnc2c(C(N)=O)ncn2c1=O at 10000 nM | LOX IMVI: 73.9; IPC-298: 227; UACC-257: 19.8; G-361: 59.4; MZ2-MEL: 66.3; WM1745: 96.1
- NC(=O)c1ccc(N(C(N)=O)c2c(F)cccc2F)nc1-c1ccc(F)cc1F at 2000 nM | LOX IMVI: 54.3; IPC-298: 58.9; UACC-257: 41.3; G-361: 239; MZ2-MEL: 13.9
- Cc1cc(N2CCOCC2)cc2[nH]c(-c3c(NC[C@@H](O)c4cccc(Cl)c4)cc[nH]c3=O)nc12 at 1000 nM | LOX IMVI: 111; IPC-298: 142; UACC-257: 41.5; G-361: 143; MZ2-MEL: 99.8; WM1745: 208
- COc1ccc(C2=N[C@@H](c3ccc(Cl)cc3)[C@@H](c3ccc(Cl)cc3)N2C(=O)N2CCNC(=O)C2)c(OC(C)C)c1 at 500 nM | LOX IMVI: 82.1; IPC-298: 83.5; UACC-257: 71.6; G-361: 28.5; MZ2-MEL: 131
- COc1ccc2c(c1)CCC1C2CCC2(C)C(NCCCCCCN3C(=O)C=CC3=O)CCC12 (stereo not given) at 2000 nM | LOX IMVI: 98.2; IPC-298: 83.1; UACC-257: 46.9; G-361: 103; MZ2-MEL: 30.3; WM1745: 134
- O=S(=O)(c1ccccc1)N(CC(F)(F)F)c1ccc(C(O)(C(F)(F)F)C(F)(F)F)cc1 at 7000 nM | LOX IMVI: 152; IPC-298: 43.9; UACC-257: 34.4; G-361: 46.4; MZ2-MEL: 34.0; WM1745: 119
- CCN(CC)CCNC(=O)c1c(C)[nH]c(/C=C2\C(=O)Nc3ccc(F)cc32)c1C at 2000 nM | LOX IMVI: 33.5; IPC-298: 182; UACC-257: 25.1; G-361: 244; MZ2-MEL: 221
- Nc1ccn([C@@H]2O[C@H](CO)[C@@H](O)C2(F)F)c(=O)n1 at 2 nM | LOX IMVI: 145; IPC-298: 171; UACC-257: 85.1; G-361: 163; MZ2-MEL: 78.6
- Cn1cncc1[C@@](N)(c1ccc(Cl)cc1)c1ccc2c(c1)c(-c1cccc(Cl)c1)cc(=O)n2C at 50 nM | LOX IMVI: 31.7; IPC-298: 69.3; UACC-257: 41.9; G-361: 92.5; MZ2-MEL: 50.3; WM1745: 101
- O=C(Nc1cc(C(F)(F)F)cc(C(F)(F)F)c1)c1cc(Cl)ccc1O at 80 nM | LOX IMVI: 113; IPC-298: 53.9; UACC-257: 33.8; G-361: 19.0; MZ2-MEL: 13.2

Repeated from the top, 2 entries:

Partner	LOX IMVI	IPC-298	UACC-257	G-361	MZ2-MEL	WM1745
NC(=O)Nc1cc(-c2cccc(F)c2)sc1C(=O)N[C@H]1CCCNC1 at 100 nM	81.2	87.5	80.8	93.7	140	122
CCCCCCCCc1ccc(CCC(N)(CO)CO)cc1 at 10000 nM	137	56.3	48.0	9720	133	-

Values as published with doi:10.1371/journal.pone.0140310, rounded.